No dose or concentration is given here for some results.
Tested on: plasma DHO
Assay: population PD model (indirect turnover, plasma DHO), mouse
Type: in vivo
Conditions: model estimate (RSE %)
Procedure: To develop the PK/PD models, a sequential approach was tested for dog data, involving the initial construction of the PK model, fixing the PK parameters with population estimated thetas and eta variances, and then estimating the PD parameters. For mouse and rat data, a simultaneous approach was employed, estimating PK and PD parameters concurrently, assuming log-normal distribution for both. To account for the delay in PD response that results from the inhibition of DHODH, the factor controlling the dissipation of the response, various modeling approaches were employed. One approach involved using an effect compartment model with an equilibrium half-life parameter ( ke0 ) to characterize the delay,
The final PK/PD model for both species was an indirect turnover model with degradation inhibition. The parameters for the final dog and mouse PK/PD models are presented in Table 3 and Supplementary Table S3, respectively.

CCCCOc1cccc(-c2ccc(-c3cc(C(=O)O)c4cc(F)ccc4n3)cc2)c1 [HOSU-53]
R0 (baseline response, plasma DHO): 0.01 (1.4) umol/L

Reference: publication PMC12030426, “Translational Pharmacokinetic-Pharmacodynamic Modeling of a Novel Oral Dihydroorotate Dehydrogenase (DHODH) Inhibitor, HOSU-53 (JBZ-001)” (Pharmaceutics, 2025)
